The results in this text go back to the supplement of paper PMC11006884.

The chains behind the UniProt entries cited, without tags or fusion partners. Where a name states a change or a piece, a line headed by the entry shows the natural chain unless it says otherwise.
UniProt Q14204, whole entry, looked up: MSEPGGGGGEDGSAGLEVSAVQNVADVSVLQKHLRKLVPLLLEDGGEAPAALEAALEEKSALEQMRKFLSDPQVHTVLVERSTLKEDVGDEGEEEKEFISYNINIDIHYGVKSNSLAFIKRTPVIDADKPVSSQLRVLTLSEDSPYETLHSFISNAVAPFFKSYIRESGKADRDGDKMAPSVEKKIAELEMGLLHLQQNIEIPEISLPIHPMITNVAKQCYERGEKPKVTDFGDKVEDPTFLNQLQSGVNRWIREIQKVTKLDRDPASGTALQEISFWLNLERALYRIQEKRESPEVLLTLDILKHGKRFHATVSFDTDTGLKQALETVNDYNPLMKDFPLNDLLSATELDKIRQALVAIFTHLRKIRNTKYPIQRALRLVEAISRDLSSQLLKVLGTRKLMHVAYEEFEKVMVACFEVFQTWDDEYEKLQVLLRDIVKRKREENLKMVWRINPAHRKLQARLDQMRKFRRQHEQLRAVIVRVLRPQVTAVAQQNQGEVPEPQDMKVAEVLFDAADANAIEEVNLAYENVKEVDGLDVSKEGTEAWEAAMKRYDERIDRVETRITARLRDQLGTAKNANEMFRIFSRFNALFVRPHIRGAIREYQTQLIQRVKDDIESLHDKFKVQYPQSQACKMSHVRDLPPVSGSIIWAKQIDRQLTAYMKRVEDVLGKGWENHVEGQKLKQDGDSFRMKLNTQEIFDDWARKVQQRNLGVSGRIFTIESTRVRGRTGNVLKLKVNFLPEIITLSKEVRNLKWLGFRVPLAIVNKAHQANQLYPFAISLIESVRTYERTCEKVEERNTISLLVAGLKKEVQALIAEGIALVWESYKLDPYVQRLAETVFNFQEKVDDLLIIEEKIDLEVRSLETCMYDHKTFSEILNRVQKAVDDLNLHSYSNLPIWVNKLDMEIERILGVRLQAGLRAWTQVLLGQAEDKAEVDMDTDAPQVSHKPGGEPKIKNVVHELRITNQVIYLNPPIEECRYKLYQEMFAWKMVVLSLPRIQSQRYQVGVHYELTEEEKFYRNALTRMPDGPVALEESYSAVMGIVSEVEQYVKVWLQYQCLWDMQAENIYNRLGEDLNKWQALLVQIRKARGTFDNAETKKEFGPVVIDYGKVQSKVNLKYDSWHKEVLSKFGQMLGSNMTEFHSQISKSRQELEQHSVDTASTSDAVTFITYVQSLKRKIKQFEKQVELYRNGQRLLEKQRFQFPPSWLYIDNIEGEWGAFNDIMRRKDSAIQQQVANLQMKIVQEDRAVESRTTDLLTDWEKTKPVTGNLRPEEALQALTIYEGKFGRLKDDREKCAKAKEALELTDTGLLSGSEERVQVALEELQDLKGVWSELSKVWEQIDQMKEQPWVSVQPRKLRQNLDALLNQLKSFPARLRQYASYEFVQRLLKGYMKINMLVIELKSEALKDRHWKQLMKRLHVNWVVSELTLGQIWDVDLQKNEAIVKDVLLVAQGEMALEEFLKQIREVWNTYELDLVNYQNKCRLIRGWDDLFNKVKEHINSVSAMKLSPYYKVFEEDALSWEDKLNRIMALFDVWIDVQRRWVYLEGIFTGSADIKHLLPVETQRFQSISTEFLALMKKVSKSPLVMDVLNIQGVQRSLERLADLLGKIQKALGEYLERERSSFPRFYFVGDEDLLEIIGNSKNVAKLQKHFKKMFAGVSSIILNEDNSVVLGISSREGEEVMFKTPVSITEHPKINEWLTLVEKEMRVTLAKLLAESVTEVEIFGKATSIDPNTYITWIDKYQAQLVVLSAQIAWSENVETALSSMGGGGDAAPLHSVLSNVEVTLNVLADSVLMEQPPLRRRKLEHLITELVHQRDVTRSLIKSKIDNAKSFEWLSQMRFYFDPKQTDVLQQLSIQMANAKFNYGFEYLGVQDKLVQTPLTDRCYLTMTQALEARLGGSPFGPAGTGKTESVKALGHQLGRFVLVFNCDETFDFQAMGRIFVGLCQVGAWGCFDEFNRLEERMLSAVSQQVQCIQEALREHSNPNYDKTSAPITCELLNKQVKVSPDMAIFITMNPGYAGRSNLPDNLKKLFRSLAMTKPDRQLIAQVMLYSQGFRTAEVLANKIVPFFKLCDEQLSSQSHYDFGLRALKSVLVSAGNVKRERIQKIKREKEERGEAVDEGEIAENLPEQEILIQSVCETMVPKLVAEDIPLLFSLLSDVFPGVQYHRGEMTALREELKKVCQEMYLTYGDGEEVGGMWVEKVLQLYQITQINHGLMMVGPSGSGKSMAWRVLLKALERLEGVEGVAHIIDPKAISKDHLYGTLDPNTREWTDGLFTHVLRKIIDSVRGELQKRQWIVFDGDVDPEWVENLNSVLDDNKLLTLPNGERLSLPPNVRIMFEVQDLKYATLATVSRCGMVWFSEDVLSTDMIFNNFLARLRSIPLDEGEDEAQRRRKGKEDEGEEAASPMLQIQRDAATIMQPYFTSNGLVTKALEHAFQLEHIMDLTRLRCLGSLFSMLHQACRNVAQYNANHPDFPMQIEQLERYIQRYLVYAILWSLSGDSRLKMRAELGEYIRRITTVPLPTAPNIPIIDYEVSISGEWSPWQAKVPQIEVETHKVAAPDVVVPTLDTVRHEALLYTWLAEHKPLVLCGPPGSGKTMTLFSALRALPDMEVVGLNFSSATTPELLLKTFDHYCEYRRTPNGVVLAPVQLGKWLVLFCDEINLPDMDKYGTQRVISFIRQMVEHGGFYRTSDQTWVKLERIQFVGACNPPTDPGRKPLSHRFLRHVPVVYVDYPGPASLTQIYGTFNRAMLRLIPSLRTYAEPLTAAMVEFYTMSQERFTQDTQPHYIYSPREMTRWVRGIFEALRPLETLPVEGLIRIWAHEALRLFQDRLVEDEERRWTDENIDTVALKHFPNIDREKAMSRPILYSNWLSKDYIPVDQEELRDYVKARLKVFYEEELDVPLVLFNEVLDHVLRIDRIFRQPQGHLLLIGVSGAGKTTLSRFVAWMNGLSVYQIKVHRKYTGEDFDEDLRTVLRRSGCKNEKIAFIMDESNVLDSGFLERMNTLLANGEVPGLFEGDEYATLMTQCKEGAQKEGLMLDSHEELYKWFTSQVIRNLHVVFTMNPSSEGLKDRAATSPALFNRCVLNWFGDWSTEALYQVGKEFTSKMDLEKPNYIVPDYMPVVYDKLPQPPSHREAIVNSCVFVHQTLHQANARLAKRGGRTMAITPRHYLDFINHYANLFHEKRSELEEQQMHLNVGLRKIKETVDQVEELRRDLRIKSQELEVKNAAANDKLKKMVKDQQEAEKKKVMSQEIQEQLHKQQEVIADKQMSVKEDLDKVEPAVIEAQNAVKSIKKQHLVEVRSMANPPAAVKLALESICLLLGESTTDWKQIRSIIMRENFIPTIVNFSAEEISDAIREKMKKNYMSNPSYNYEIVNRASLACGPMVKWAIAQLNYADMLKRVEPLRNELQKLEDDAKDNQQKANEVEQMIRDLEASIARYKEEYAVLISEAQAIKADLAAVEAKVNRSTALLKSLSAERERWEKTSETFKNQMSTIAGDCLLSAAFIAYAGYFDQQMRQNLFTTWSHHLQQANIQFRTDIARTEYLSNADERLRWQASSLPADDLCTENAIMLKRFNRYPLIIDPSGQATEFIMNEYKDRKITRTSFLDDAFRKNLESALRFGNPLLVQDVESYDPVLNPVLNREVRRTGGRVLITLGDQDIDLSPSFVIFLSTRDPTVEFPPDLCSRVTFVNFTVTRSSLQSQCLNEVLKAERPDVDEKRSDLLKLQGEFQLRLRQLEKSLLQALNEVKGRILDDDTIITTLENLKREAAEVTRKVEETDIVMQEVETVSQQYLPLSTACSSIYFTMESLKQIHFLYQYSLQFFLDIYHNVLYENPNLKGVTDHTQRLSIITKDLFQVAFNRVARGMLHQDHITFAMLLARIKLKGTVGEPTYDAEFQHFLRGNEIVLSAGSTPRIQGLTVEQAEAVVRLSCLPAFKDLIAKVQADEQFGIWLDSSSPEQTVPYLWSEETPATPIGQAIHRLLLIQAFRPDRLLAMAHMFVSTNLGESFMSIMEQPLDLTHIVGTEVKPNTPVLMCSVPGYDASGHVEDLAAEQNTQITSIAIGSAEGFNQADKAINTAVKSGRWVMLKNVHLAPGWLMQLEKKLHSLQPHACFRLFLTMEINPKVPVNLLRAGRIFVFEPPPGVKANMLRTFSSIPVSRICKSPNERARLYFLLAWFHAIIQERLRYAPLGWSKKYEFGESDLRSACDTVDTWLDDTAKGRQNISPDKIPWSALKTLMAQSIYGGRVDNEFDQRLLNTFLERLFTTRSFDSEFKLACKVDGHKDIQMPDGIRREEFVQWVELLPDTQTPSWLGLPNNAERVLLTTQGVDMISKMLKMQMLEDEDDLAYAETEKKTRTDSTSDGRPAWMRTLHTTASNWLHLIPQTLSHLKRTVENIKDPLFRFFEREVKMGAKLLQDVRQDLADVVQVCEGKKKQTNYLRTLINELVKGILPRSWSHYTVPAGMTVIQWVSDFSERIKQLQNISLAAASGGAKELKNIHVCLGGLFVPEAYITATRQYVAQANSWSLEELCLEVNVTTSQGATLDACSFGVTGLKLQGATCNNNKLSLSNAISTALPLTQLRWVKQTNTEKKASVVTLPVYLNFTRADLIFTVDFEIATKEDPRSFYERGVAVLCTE
UniProt Q13542: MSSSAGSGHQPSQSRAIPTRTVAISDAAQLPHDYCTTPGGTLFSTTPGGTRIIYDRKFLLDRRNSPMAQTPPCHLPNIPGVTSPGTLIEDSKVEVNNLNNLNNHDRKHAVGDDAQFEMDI
UniProt Q13642: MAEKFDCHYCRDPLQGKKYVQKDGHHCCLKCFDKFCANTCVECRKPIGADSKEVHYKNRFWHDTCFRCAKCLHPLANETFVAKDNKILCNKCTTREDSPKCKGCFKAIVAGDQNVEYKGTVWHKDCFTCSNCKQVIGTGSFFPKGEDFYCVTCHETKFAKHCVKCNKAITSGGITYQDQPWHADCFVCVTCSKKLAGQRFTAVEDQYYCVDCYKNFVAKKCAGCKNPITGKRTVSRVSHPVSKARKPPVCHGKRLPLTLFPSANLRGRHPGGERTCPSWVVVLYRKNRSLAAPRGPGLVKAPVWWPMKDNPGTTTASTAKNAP
UniProt Q14493, whole entry, looked up: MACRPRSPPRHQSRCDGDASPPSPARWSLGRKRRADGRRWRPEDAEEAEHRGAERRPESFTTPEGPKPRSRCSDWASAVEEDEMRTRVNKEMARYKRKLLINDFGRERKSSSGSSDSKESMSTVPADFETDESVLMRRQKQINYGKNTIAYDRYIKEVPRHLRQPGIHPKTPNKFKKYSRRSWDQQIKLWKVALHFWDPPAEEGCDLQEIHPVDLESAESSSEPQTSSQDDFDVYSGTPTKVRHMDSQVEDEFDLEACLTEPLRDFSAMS
UniProt Q13614, whole entry: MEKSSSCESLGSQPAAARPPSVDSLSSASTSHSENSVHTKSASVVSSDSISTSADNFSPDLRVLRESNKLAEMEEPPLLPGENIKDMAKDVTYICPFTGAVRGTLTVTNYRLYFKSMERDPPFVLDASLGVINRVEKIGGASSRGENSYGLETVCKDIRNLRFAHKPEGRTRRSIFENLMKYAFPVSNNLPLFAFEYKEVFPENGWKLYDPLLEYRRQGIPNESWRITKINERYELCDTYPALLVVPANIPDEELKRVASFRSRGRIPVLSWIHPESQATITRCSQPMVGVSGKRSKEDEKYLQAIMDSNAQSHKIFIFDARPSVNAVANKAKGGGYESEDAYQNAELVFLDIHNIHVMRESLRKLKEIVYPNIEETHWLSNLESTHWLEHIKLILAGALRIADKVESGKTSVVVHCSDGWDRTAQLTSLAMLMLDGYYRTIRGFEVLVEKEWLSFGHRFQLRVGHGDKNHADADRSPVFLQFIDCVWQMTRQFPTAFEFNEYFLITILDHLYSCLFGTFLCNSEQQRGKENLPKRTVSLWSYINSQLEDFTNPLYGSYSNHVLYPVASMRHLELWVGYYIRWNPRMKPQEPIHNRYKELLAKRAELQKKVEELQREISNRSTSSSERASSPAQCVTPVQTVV
UniProt Q13838, whole entry, looked up: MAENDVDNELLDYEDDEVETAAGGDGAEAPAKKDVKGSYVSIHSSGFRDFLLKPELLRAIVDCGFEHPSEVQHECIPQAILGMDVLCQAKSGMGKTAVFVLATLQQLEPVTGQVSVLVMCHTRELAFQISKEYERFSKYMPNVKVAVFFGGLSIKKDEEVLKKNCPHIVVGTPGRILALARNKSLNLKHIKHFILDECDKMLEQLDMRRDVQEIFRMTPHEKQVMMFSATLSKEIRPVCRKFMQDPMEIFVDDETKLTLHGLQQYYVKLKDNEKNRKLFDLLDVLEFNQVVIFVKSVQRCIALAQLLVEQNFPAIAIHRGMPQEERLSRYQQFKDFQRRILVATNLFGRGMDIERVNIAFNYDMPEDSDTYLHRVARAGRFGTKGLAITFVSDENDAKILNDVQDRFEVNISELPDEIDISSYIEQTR

The list shows a part of the results, in another mix than the full data. Single values of this set are uncertain.

Compound in this assay: COC(=O)/C=C/c1ccccc1 [methyl cinnamate]
As to the kind of experiment: log2 ratio of iodoacetamide-alkyne labeling of the cysteine site, DMSO over compound (competition); higher = stronger covalent engagement of the cysteine by the compound, active = 1 or more. To be noted: 500 µM; treatment time 1 h; system: HEK293T cell lysate. In short, it runs like this: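 For each cysteine, the log2 competition ratio is mean control-channel reporter intensity over mean compound-channel reporter intensity. HEK293T lysate (2 mg/mL) was exposed to vehicle or electrophile (500 µM, 1 h, ambient temperature), labelled with iodoacetamide alkyne (1 h), clicked to sCIP-TMT reagents, digested overnight with trypsin at 37 °C, streptavidin-enriched and analysed by Orbitrap Eclipse LC-MS/MS with FAIMS and FragPipe. Cysteines quantified in only one of three replicates, each with duplicate channels, were excluded.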
Take DYNC1H1 C1999 (UniProt Q14204): the “log2 ratio of iodoacetamide-alkyne labeling” value (shortened to “log2 ratio”) is inactive: 0.196. In the case of DYNC1H1 C2712 (UniProt Q14204), the “log2 ratio” value was inactive: -0.14. As to DYNC1H1 C4644 (UniProt Q14204), the “log2 ratio” value is inactive: 0.0658. As for EIF4EBP2 C73 (UniProt Q13542), the “log2 ratio” value is inactive: -0.108. Take SQSTM1 C27 (UniProt Q13501): the “log2 ratio” value was inactive: 0.151. Consider MCM6 C185 (UniProt Q14566), for which the “log2 ratio” value was inactive: 0.147. For the target SHROOM2 C836 (UniProt Q13796), the “log2 ratio” value is inactive: 0.513. The same measure for FHL1 C153 (UniProt Q13642): inactive: 0.196. On to SLBP C72 (UniProt Q14493), for which the “log2 ratio” value was inactive: 0.257.

In the case of DSG2 C871 (UniProt Q14126), the “log2 ratio” value is inactive: -0.0236. Turning to MTMR2 C95 (UniProt Q13614), the “log2 ratio” value was inactive: -0.0372. Under EIF3A C198 (UniProt Q14152) stands inactive: 0.243. Under DYNC1H1 C3147 (UniProt Q14204) stands inactive: 0.305; under TTLL12 C612 (UniProt Q14166), inactive: 0.193. Under TTLL12 C528 (UniProt Q14166) stands inactive: -0.204; under DDX39B C165 (UniProt Q13838), inactive: 0.147. Consider DGKZ C540 (UniProt Q13574), for which the “log2 ratio” value was inactive: -0.175.
